Reference: PubChem BioAssay AID1508597 (Cure First, 2020)
The deposit covers about 2,100 reagents; below is a part drawn at random. 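Calls flag viability under 80% in either arm, not effects specific to rucaparib; the reference for percent is not stated.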 Not given: the 100% reference.

Aim: 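Genes whose silencing sensitises or protects ovarian cancer cells against rucaparib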 (primary screen)
System: human ovarian carcinoma lines grown from tumours: OCI-P5x (papillary serous) and OCI-C5x (clear cell)
Reagents: siRNA pool against human genes, 1.25 pmol siRNA per well
Duration: 72 h or 96 h, depending on the cell culture
Challenge: rucaparib 20 µM (about IC30) or vehicle, present until read-out
Detection: 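Luminescent ATP-based viability assay read 72 or 96 h after transfection, depending on culture, given as normalised percent viability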
Reading the numbers: viability, normalised: higher = more viable cells remaining
Hit rule: 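Active when normalised viability falls below 80 percent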
Calls: active = viability under 80%; inactive = viability 80% or more

gene	rucaparib or vehicle	cell line	technical replicate	viability, normalised (%)	activity call
KIT	Rucaparib	OCI-C5x (clear cell)	1	42.1	active
KIT	Rucaparib	OCI-C5x (clear cell)	2	55.6	active
KIT	Rucaparib	OCI-C5x (clear cell)	3	49.7	active
KIT	Rucaparib	OCI-P5x (serous)	1	74.8	active
KIT	Rucaparib	OCI-P5x (serous)	2	71	active
KIT	Rucaparib	OCI-P5x (serous)	3	65.7	active
KIT	Vehicle	OCI-C5x (clear cell)	1	62.1	active
KIT	Vehicle	OCI-C5x (clear cell)	2	54.1	active
KIT	Vehicle	OCI-C5x (clear cell)	3	50.2	active
KIT	Vehicle	OCI-P5x (serous)	1	57.3	active
KIT	Vehicle	OCI-P5x (serous)	2	63.2	active
KIT	Vehicle	OCI-P5x (serous)	3	65.6	active
MAPK13	Rucaparib	OCI-C5x (clear cell)	1	50.4	active
MAPK13	Rucaparib	OCI-C5x (clear cell)	2	37.8	active
MAPK13	Rucaparib	OCI-C5x (clear cell)	3	49.5	active
MAPK13	Rucaparib	OCI-P5x (serous)	1	96.2	inactive
MAPK13	Rucaparib	OCI-P5x (serous)	2	43.8	active
MAPK13	Rucaparib	OCI-P5x (serous)	3	73.1	active
MAPK13	Vehicle	OCI-C5x (clear cell)	1	75.4	active
MAPK13	Vehicle	OCI-C5x (clear cell)	2	60	active
MAPK13	Vehicle	OCI-C5x (clear cell)	3	43.3	active
MAPK13	Vehicle	OCI-P5x (serous)	1	72.3	active
MAPK13	Vehicle	OCI-P5x (serous)	2	68.4	active
MAPK13	Vehicle	OCI-P5x (serous)	3	74.7	active
PDE7A	Rucaparib	OCI-C5x (clear cell)	1	44.3	active
PDE7A	Rucaparib	OCI-C5x (clear cell)	2	49.2	active
PDE7A	Rucaparib	OCI-C5x (clear cell)	3	57.2	active
PDE7A	Rucaparib	OCI-P5x (serous)	1	51.2	active
PDE7A	Rucaparib	OCI-P5x (serous)	2	51.9	active
PDE7A	Rucaparib	OCI-P5x (serous)	3	59	active
PDE7A	Vehicle	OCI-C5x (clear cell)	1	45.4	active
PDE7A	Vehicle	OCI-C5x (clear cell)	2	43.3	active
PDE7A	Vehicle	OCI-C5x (clear cell)	3	46	active
PDE7A	Vehicle	OCI-P5x (serous)	1	66.7	active
PDE7A	Vehicle	OCI-P5x (serous)	2	63.8	active
PDE7A	Vehicle	OCI-P5x (serous)	3	68.1	active
ASH1L	Rucaparib	OCI-C5x (clear cell)	1	62.4	active
ASH1L	Rucaparib	OCI-C5x (clear cell)	2	75.6	active
ASH1L	Rucaparib	OCI-C5x (clear cell)	3	53.1	active
ASH1L	Rucaparib	OCI-P5x (serous)	1	76.3	active
ASH1L	Rucaparib	OCI-P5x (serous)	2	63.8	active
ASH1L	Rucaparib	OCI-P5x (serous)	3	47.1	active
ASH1L	Vehicle	OCI-C5x (clear cell)	1	48.6	active
ASH1L	Vehicle	OCI-C5x (clear cell)	2	69.7	active
ASH1L	Vehicle	OCI-C5x (clear cell)	3	64	active
ASH1L	Vehicle	OCI-P5x (serous)	1	71.3	active
ASH1L	Vehicle	OCI-P5x (serous)	2	65.6	active
ASH1L	Vehicle	OCI-P5x (serous)	3	75.1	active
PLCD3	Rucaparib	OCI-C5x (clear cell)	1	67.5	active
PLCD3	Rucaparib	OCI-C5x (clear cell)	2	52.8	active
PLCD3	Rucaparib	OCI-C5x (clear cell)	3	58.8	active
PLCD3	Rucaparib	OCI-P5x (serous)	1	74.7	active
PLCD3	Rucaparib	OCI-P5x (serous)	2	67.9	active
PLCD3	Rucaparib	OCI-P5x (serous)	3	76.4	active
PLCD3	Vehicle	OCI-C5x (clear cell)	1	65.1	active
PLCD3	Vehicle	OCI-C5x (clear cell)	2	56.3	active
PLCD3	Vehicle	OCI-C5x (clear cell)	3	56.8	active
PLCD3	Vehicle	OCI-P5x (serous)	1	78.4	active
PLCD3	Vehicle	OCI-P5x (serous)	2	75	active
PLCD3	Vehicle	OCI-P5x (serous)	3	90.2	inactive

Targets above whose gene name begins with M or m:
gene	rucaparib or vehicle	cell line	technical replicate	viability, normalised (%)	activity call
MAPK13	Rucaparib	OCI-C5x (clear cell)	1	50.4	active
MAPK13	Rucaparib	OCI-C5x (clear cell)	2	37.8	active
MAPK13	Rucaparib	OCI-C5x (clear cell)	3	49.5	active
MAPK13	Rucaparib	OCI-P5x (serous)	1	96.2	inactive
MAPK13	Rucaparib	OCI-P5x (serous)	2	43.8	active
MAPK13	Rucaparib	OCI-P5x (serous)	3	73.1	active
MAPK13	Vehicle	OCI-C5x (clear cell)	1	75.4	active
MAPK13	Vehicle	OCI-C5x (clear cell)	2	60	active
MAPK13	Vehicle	OCI-C5x (clear cell)	3	43.3	active
MAPK13	Vehicle	OCI-P5x (serous)	1	72.3	active
MAPK13	Vehicle	OCI-P5x (serous)	2	68.4	active
MAPK13	Vehicle	OCI-P5x (serous)	3	74.7	active
